Reference: patent US20060024708A1, “Porcine sulfotransferase 2A1 polynucleotide sequence, protein, and methods of use for same” (UNIVERSITY OF GUELPH, priority 2004, published 2006)
At least one structure is not confirmed: it was looked up by name or label, or the drawing left a doubt.

Tests used:
[1] = system: sulfotransferase activity towards 5α-androstenone in Leydig cells; assay: Inhibition studies: production of sulfoconjugated 16-androstene steroids from radiolabelled pregnenolone by purified Leydig cells; assay type: cell-based, boar; conditions: 8 hours, 100 μM inhibitor
[2] = system: human SULT2A1; conditions: Duanmu et al., 2002; cited from earlier work

SMILES	production of sulfoconjugated 16-androstene steroids at the 100 μM level [1]	induction of human SULT2A1 [2]
C[C@]12CC[C@@H]3c4ccc(O)cc4CC[C@H]3[C@@H]1CCC2=O [Estrone]	very slight inhibitory effect	–
C[C@@H]1C[C@H]2[C@@H]3CCC4=CC(=O)C=C[C@]4(C)[C@@]3(F)[C@@H](O)C[C@]2(C)[C@@]1(O)C(=O)CO [dexamethasone]	–	induced
